This note sets out measurements from article PMC12251226, “Comparison of in silico predictions of action potential duration in response to inhibition of IKr and ICaL with new human ex vivo recordings” (PLOS Computational Biology, 2025).

Chains of the proteins cited; added tags and fusions are not shown. Lines headed by an entry give the natural chain unless they say otherwise; changes in a name come on top.
UniProt Q12809: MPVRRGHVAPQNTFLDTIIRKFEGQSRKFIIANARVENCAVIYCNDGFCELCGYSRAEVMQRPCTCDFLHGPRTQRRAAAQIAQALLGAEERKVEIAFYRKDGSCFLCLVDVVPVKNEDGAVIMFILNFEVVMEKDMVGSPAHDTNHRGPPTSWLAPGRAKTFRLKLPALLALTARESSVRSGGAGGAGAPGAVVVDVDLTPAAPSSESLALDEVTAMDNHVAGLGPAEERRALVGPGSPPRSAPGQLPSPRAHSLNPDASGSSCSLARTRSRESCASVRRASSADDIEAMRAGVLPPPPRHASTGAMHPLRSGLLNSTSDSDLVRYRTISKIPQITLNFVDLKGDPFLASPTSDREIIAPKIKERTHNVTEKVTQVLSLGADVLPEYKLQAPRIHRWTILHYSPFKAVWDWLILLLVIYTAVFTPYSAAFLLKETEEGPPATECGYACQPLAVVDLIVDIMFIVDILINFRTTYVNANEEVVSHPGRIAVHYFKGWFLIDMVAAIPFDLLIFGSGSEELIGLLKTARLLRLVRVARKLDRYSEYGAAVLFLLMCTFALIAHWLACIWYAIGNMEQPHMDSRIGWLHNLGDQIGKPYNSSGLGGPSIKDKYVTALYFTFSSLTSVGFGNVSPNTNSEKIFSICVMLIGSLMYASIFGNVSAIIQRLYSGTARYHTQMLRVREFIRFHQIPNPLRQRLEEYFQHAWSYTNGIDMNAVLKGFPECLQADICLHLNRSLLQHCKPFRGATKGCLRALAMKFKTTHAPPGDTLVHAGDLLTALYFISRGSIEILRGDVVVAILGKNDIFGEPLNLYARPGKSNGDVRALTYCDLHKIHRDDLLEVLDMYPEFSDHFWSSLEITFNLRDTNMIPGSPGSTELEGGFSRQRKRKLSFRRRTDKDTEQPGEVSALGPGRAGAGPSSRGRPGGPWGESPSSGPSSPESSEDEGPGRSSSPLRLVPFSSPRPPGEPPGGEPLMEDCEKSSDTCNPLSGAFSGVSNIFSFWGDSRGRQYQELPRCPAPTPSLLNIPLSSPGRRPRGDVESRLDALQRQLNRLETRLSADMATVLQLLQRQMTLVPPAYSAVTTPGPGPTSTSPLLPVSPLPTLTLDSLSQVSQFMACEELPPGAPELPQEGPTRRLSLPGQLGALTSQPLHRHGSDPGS

In this data set the target is hERG channels (Homo sapiens, UniProt Q12809).

Molecules are shown by their SMILES.

`COC(=O)C1=C(C)NC(C)=C(C(=O)OC)C1c1ccccc1[N+](=O)[O-]` [Nifedipine]: the “IKr CiPA IC50” value is “inactive”.
